Laboratory results reported in patent US20200231685A1, “CONJUGATES FOR TREATING INFLAMMATORY DISEASE AND IDENTIFICATION OF PATIENTS LIKELY TO BENEFIT FROM SUCH TREATMENT” (The University of Bristol, priority 2013, published 2020).
Entries after “also recorded” stand apart in the source; their conditions may differ. At least one compound was matched to its structure with a doubt left.

What was measured:
CD4+CCR6+ T cells (Th17) = assay: T cell proliferation assay, human polarized Th17 cells; format: cell-based; conditions: Dex 24 hours; tritiated thymidine incorporation
CD4+CCR6- T cells (Th0) = assay: T cell proliferation assay, human Th0 cells; format: cell-based; conditions: Dex 24 hours; tritiated thymidine incorporation
Th17 (CCR6+) cells = assay: Intracellular IL-17 / IFN-γ expression by flow cytometry in human Th17 cultures; format: cell-based; conditions: 24 hours treatment, PMA and ionomycin 4 hours
Text: Absolute expression was plotted on a log2 scale colour coded from low to high expression. […] All data are represented as mean±SEM.
CCR6 positive and CCR6 negative CD4^+ T cells were purified and cultured in the presence of polarising cytokines for two weeks. […] Intracellular cytokines were quantified by flow cytometry (FIG. 23A) and percentage suppression calculated in relation to an untreated control (FIG. 23B). Data represents the mean expression of three to four normal volunteers, with error expressed as standard deviation.
Therefore, to determine whether in vitro, human CD4+Th17 T cells were responsive to glucocorticoids, we generated an IL-17 secreting CD4+ T cell subset using the innate expression of CCR6. […] As a result of glucocorticoid binding the glucocorticoid receptor (GR), the GR translocates to the nucleus and binds to glucocorticoid-response elements within the DNA. […] We then compared the translocation of the GR in Th17 and Th0 cells.
Cell Cultures. Murine Naive T cells were obtained from lymph nodes and spleens of OT-II/3A9 mice using CD4 positive selection kits following the manufacturer's instructions (Miltenyi Biotech). Splenocytes from respective wild-type mice were irradiated and mixed with the CD4^+ T cells at a 1:10 ratio. […] All cells were kept in a 37° C., 5% CO2 humidified incubator. Cells were used after two rounds of activation. […]

GR, GR-β = format: cell-based, human
murine Th17 cells = assay: T cell proliferation assay, murine polarized Th17 cells (OT-II, HEL-Tg); format: cell-based, mouse; conditions: OT-II and HEL-Tg CD4+ cells; treatment 48 hours
[1] = test system: Experimental Autoimmune Uveitis (EAU); format: in vivo, mouse

SMILES: C[C@@H]1C[C@H]2[C@@H]3CCC4=CC(=O)C=C[C@]4(C)[C@@]3(F)[C@@H](O)C[C@]2(C)[C@@]1(O)C(=O)CO [Dex, dexamethasone]
- Proliferation of Th17 cells on exposure to Dex (CD4+CCR6+ T cells (Th17)): persisted
- Th0 cell division (CD4+CCR6- T cells (Th0)): effectively suppressed
- IL-17 expression in Th17 cells (Th17 (CCR6+) cells): maintained; also recorded: not suppressed
- expression of GR or GR-β in Th17 and Th0 cells (GR, GR-β): not altered
- proliferation of murine Th17 cells (murine Th17 cells): resistant to glucocorticoid suppression; also recorded: steroid refractory
- intracellular cytokine expression in splenic CD4+ T cells ([1]; Day 18): unchanged
- mRNA of Th17 cytokines (IL-17A, IL-17F and IL-22) in tissue infiltrating CD4+ T cells versus control ([1]; Day 18, Real-time PCR): significantly increased
- Ly6G+ neutrophils versus control mice ([1]; Day 18, flow cytometry): remained unchanged
- proportion of infiltrated CD11b+ myeloid cells ([1]; Day 18, flow cytometry): similarly reduced
- tissue infiltrating CD4+ T cells per eye ([1]; Day 18, flow cytometry): significant and equal reduction
- disease severity (TEFI clinical score, confirmed by histology) ([1]; treatment Day 11, 13, 15, 17 post-immunization, Dex subcutaneous, CsA oral gavage): significant reduction
